Source: patent US20150050211A1 (UNIVERSITY OF SOUTHERN CALIFORNIA, published 2015)
No constants are given. Whether binding was seen depends on the method and setting. Some results given as binding are weak or reduced against the parent protein; the word gives no strength.

Amino acid sequences for entries named in this document (tags omitted).
UniProt P63096: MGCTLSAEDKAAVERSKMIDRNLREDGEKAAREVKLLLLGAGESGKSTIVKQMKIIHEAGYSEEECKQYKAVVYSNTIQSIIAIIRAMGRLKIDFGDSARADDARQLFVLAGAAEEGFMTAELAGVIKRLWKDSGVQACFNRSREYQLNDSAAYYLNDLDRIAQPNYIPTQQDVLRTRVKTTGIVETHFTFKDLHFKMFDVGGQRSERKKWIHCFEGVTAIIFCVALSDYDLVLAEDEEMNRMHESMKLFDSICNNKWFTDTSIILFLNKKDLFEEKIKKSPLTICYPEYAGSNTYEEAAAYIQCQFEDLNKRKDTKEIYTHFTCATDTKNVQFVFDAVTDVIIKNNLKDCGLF

Legend:
Gαi1 [1] = molecular target: Gαi1 (UniProt P63096); test: general statement in Experiment No. 4; no assay named there
Gαi1 [2] = molecular target: Gαi1 (UniProt P63096); test: pull-down of radiolabeled Gα subunit by biotinylated peptide on NeutrAvidin-agarose, scintillation counting

- binding (Gαi1 [1]): binds
- binding (Gαi1 [2]): binds
Binder: MITWYEFVAGTK (cyclized from the lysine side chain to the N-terminus; biotin at the C-terminus) [C-terminally biotinylated cycGIBP]
